HELM strings list residues between dots; [ac] is acetyl, [am] amide, other brackets name non-standard units.

This data set in a line: general procedure: Boc solid-phase peptide synthesis; resins substituted with Boc-aminoacids. To be noted: whole synthesis.
With PEPTIDE1{R.A.R.R.K.E.R.A.R}$$$$V2.0, the “final HPLC purity” value turned out to be 99.2%.
The result for PEPTIDE1{R.A.R.R.K.E}$$$$V2.0 reads 99.81%.
As to PEPTIDE1{R.K.E.R.A.R}$$$$V2.0, the “final HPLC purity” value is on record as 98,62%.
Under PEPTIDE1{R.K.E.R.[dA].R}$$$$V2.0 stands 99.2%; under PEPTIDE1{R.[dA].R.R.K.E}$$$$V2.0, 99.1%.

For the origin of these results see US5079231A (Ellem Industria Farmaceutica S.p.A., priority 1988, dated 1992).
